The target of the experiment is gH glycoprotein of cytomegalovirus on CMV-infected HEL cells (cytomegalovirus (CMV)) (UniProt P12824). Kind of experiment: immunostaining of CMV-infected human embryonic lung fibroblasts.

Protein sequences, listed by entry. Tags and fused reporters are not part of them. Residues count along the entry.
UniProt P12824, residues 24-743: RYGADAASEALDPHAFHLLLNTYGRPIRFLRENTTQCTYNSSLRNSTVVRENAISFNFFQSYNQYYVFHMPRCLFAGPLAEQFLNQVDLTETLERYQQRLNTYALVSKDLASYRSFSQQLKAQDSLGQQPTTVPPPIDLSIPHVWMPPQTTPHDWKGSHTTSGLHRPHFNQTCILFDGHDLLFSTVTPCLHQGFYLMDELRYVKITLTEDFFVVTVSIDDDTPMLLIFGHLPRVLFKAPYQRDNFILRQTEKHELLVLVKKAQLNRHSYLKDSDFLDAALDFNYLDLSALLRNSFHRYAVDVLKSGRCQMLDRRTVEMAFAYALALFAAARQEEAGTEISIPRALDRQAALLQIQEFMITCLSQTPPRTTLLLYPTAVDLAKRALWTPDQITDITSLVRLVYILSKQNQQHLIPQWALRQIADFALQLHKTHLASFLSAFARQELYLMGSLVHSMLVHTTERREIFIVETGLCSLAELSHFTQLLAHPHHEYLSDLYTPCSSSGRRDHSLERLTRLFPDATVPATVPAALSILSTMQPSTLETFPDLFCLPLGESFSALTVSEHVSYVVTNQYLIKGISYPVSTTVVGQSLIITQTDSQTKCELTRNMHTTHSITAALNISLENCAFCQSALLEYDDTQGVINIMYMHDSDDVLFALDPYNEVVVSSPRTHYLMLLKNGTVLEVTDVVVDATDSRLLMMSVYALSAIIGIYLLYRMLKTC

These are yes or no findings as the source states them, for the method shown. Some results given as binding are weak or reduced against the parent protein; the word gives no strength.

B1: chimeric CMV5 antibody (antibody, V domains shown)
VH: EVQLQQSGPELVKPGASMKISCKASVYSFTGYTMNWVKQSHGQNLEWIGLINPYNGGTSYNQKFKGKATLTVDKSSNTAYMELLSLTSADSAVYYCTRRGFRDYSMDYWGQGTSVTVSS
VL: DIVLTQSPATLSVTPGDSVSLSCRASQSISNNLHWYQQKSHESPRLLIKYASQSISGIPSRFSGSGSGTDFTLSVNGVETEDFGMYFCQQSNSWPHTFGGGTKLEIK
For the molecule B1, the binding result is listed as “binds”.

The values above are taken from patent US20080160018A1.
